Reference: PubChem BioAssay AID1671190 (National Center for Advancing Translational Sciences (NCATS), 2021)
About 6,100 (1.1%) of roughly 580,000 compounds were called active. This list was built around the results that the source calls inconclusive (neither active nor inactive); the mix of calls is not that of the screen. The call rests on the fitted dose curve; in most records, active means well fitted inhibition curve with a large enough effect; inconclusive means small, poorly fitted or top-dose-only effect, or another doubt; inactive means no such curve, though single readings can be large or run the other way. Potencies beside an inconclusive call are fits to weak or partial responses and may not hold up.

Amino acid sequences for entries named in this document (tags omitted). A change or cut given only in a name is not applied to a line headed by its entry.
UniProt P18054: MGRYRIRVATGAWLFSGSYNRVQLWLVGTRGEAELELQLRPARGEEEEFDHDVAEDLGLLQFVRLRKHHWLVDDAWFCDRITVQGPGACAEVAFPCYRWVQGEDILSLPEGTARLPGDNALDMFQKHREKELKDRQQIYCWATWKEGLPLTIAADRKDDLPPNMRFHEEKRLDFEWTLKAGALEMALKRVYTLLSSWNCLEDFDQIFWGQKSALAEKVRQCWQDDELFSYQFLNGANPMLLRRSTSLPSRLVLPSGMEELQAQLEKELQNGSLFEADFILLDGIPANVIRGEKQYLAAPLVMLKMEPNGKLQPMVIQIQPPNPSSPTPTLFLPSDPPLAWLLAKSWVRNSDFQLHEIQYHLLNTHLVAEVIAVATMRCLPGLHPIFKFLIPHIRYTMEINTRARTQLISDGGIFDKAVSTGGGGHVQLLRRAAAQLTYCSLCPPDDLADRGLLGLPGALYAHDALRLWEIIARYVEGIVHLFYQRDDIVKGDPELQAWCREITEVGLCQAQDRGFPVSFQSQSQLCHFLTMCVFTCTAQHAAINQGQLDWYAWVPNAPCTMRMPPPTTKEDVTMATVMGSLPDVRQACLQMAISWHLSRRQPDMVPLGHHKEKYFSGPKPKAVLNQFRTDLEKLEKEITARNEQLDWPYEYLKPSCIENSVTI

Biological target: Polyunsaturated fatty acid lipoxygenase ALOX12 (Homo sapiens) (UniProt P18054)
Experiment: Primary qHTS assay for inhibitors of human arachidonate 12S-lipoxygenase (ALOX12): Round 2
Conditions: purified 12hLO, xylenol orange hydroperoxide absorbance; activity change, negative = inhibition: at 108 µM (top of the series) unless noted
Outline: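 Purified human 12hLO (150 nM final) in 25 mM Hepes, 0.01% Triton X-100, pH 7.0 was preincubated 15 min at room temperature with compound. Then 40 uM arachidonic acid was added, 30 min. Hydroperoxide was read by Fe-XO absorbance ratio 573/405 nm.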
On the % scale 0 is the no-effect control and ±100 the full control effect; potency means the concentration at half of the fitted maximal effect.

With `O=C1CCCc2nc3ccccc3c(-c3ccccc3)c21` as the compound, how does the Potency read?
Its Potency is inconclusive: 50.1 µM [inhibitor, partial curve, poor fit].

For `O=C(CSc1nnc(-c2ccco2)c(-c2ccco2)n1)Nc1ccccc1`, which Potency is on record?
The Potency was inconclusive: 15.8 µM [inhibitor, full curve].

With `Oc1c(Br)cc(Br)cc1CNn1cnnc1` as the compound, how does the Potency read?
Its Potency is inconclusive: 35.5 µM [inhibitor, partial curve, poor fit].

Which “activity change, negative = inhibition” value does the source give for `Cc1ccc(Sc2c(C#N)c(-c3ccccc3)nn2C)cc1` here?
The value was inactive: -11.7%.

How did the “activity change, negative = inhibition” value turn out when `COc1ccccc1NC(=O)CC(=O)Nc1ccccc1OC` was run?
Its value is inactive: 69%.

Which “activity change, negative = inhibition” value does the source give for `COC(=O)COc1c(Cl)cc(Cl)c2ccc(C)nc12` here?
Its value is inactive: -1.39%.

Which Potency does the source give for `Cc1ccc(-c2noc(CSc3nnc(C)n3-c3ccc(C)cc3)n2)cc1` here?
The Potency was inconclusive: 126 µM [inhibitor, single point].

How did the Potency turn out when `O=S(=O)(Nc1cc(C(F)(F)F)ccc1N1CCOCC1)c1ccc2ccccc2c1` was run?
The Potency was inconclusive: 0.316 µM [inhibitor, full curve, poor fit].

`COc1ccc(/C(N)=N/OC(=O)C2CCCCC2)cc1OC` was tested. Which Potency did it give?
Its Potency is inconclusive: 100 µM [inhibitor, single point].

Which Potency does the source give for `COc1ccc(/C=C2\Oc3cc(OS(C)(=O)=O)ccc3C2=O)c(OC)c1OC` here?
The Potency was inconclusive: 50.1 µM [inhibitor, partial curve, poor fit].

With `N#Cc1cccc(NC(=O)CCSCc2ccccn2)c1` as the compound, how does the Potency read?
Its Potency is inconclusive: 6.31 µM [inhibitor, full curve].

With `CCCc1nc(C(=O)NC(C)c2cnn(-c3ccccc3)c2C)cs1` (stereo not given) as the compound, how does the “activity change, negative = inhibition” value read?
Its value is inactive: 15.5%.

How did the “activity change, negative = inhibition” value turn out when `O=c1c(-c2ccccc2)nc2ccccc2n1C(c1ccccn1)c1nc2ccccc2[nH]1` (stereo not given) was run?
The value was inactive: -26.6%.

`COCc1nncn1C1CCN(C(=O)c2cc(F)ccc2Cl)CC1` was tested. Which “activity change, negative = inhibition” value did it give?
Its value is inactive: 32.3%.

How did the Potency turn out when `CCN=C1NC(c2cccc(Cl)c2)C(C(=O)OC)=C(C)N1Cc1ccc(C(F)(F)F)cc1` (stereo not given) was run?
Its Potency is inconclusive: 50.1 µM [inhibitor, partial curve, poor fit].

`COc1ccc(NC(=O)CCCc2nnc3n(CCC(C)C)c(=O)c4sccc4n23)cc1Cl` was tested. Which Potency did it give?
Its Potency is inconclusive: 126 µM [inhibitor, partial curve, poor fit].

Which “activity change, negative = inhibition” value does the source give for `Cc1ccc(CN2CCCN(S(=O)(=O)c3ccccc3)CCC(=O)NCC2)o1` here?
The value was inactive: 28.2%.

For `Cc1ccc(C(=O)NCC(c2ccco2)N2CCc3ccccc3C2)cc1` (stereo not given), which Potency is on record?
The Potency was active: 8.91 µM.

With `COc1ccc(OCCSc2nc3ccccc3n2CC(=O)N2CCOCC2)cc1` as the compound, how does the Potency read?
The Potency was inconclusive: 89.1 µM [inhibitor, partial curve, poor fit].

Which Potency does the source give for `Oc1cccc2ccc(/C=C/c3ccc(Br)s3)nc12` here?
Its Potency is inconclusive: 25.1 µM [inhibitor, partial curve, poor fit].

How did the Potency turn out when `C=CCOc1ccc(/C=C2/C(=O)ON=C2C)cc1OC` was run?
The Potency was active: 17.8 µM.

Which Potency does the source give for `CS(=O)(=O)Nc1cccc(-c2ccc3ncnc(NC4CCNCC4)c3c2)c1` here?
The Potency was inconclusive: 35.5 µM [inhibitor, partial curve, poor fit].

`COc1ccccc1C1NC(=O)NC(C)=C1C(=O)OCc1ccccc1` (stereo not given) was tested. Which “activity change, negative = inhibition” value did it give?
The value was inactive: 0%.

Which Potency does the source give for `CN(C)c1cccc2c1c(NC(=O)Nc1ccccc1)nn2C` here?
The Potency was inconclusive: 112 µM [inhibitor, single point].

With `COc1ccc(/C=C/c2onc(C)c2S(=O)(=O)N2CCC(C(=O)N3CCCCC3)CC2)cc1` as the compound, how does the Potency read?
Its Potency is inconclusive: 126 µM [inhibitor, partial curve, poor fit].

For `COc1ccc(S(=O)(=O)N2CCCCCC2)cc1C(=O)N(C)CC(=O)Nc1ccccc1C(F)(F)F`, which Potency is on record?
Its Potency is inconclusive: 112 µM [inhibitor, single point].

How did the Potency turn out when `COc1ccc(NC(=O)c2cc(-c3cc(F)ccc3OC)n[nH]2)cn1` was run?
Its Potency is inconclusive: 112 µM [inhibitor, partial curve, poor fit].

Which “activity change, negative = inhibition” value does the source give for `Cc1csc2nc(CSc3nc4ccccc4o3)cn12` here?
Its value is inactive: -23.3%.

For `CN(C)c1ccc(/C=C(\C#N)c2ccccn2)cc1`, which Potency is on record?
Its Potency is inconclusive: 35.5 µM [inhibitor, partial curve].

Which Potency does the source give for `O=C(NCc1ccco1)/C(=C\c1ccc(F)cc1)NC(=O)c1ccco1` here?
The Potency was inconclusive: 56.2 µM [inhibitor, partial curve, poor fit].

Which “activity change, negative = inhibition” value does the source give for `COc1ccc(/C=C/c2nc(C#N)c(NCCCn3ccnc3)o2)cc1OC` here?
Its value is inactive: 23.1%.

With `Cc1cc(O)c(NC(=O)c2ccco2)cc1C` as the compound, how does the Potency read?
The Potency was inconclusive: 126 µM [inhibitor, partial curve, poor fit].

How did the Potency turn out when `COC(=O)c1[nH]c2ccccc2c1NC(=O)Oc1ccccc1` was run?
Its Potency is inconclusive: 50.1 µM [inhibitor, single point].

Which “activity change, negative = inhibition” value does the source give for `O=C(C1=C(c2ccccc2)S(=O)(=O)CCO1)N(Cc1ccc(Cl)cc1)c1ccccn1` here?
The value was inactive: -14.2%.

`COc1ccc(-c2noc(-c3cccn3CC(=O)Nc3ccc(C)cc3C)n2)cc1F` was tested. Which “activity change, negative = inhibition” value did it give?
Its value is inactive: -11.2%.

`O=c1c2ccccc2nnn1CSc1ccc2c(c1)OCCO2` was tested. Which Potency did it give?
The Potency was inconclusive: 112 µM [inhibitor, single point].

For `O=C(CCSCc1ccccc1Cl)N1CCN(c2ccc(F)cc2)CC1`, which Potency is on record?
The Potency was inconclusive: 5.01 µM [inhibitor, full curve, poor fit].

Which Potency does the source give for `Cc1cccc(N(C)S(=O)(=O)c2c[nH]c3ccc([N+](=O)[O-])cc23)c1` here?
The Potency was inconclusive: 4.47 µM [inhibitor, full curve, poor fit].

`O=C(CSc1nc(-c2cccs2)nc2ccccc12)NC1CCS(=O)(=O)C1` (stereo not given) was tested. Which activity change, negative = inhibition did it give?
The activity change, negative = inhibition was inconclusive: -30.8% [inhibitor].

For `O=C(O)Cn1ccc2cc(OCCc3cccc(-c4ccccc4)c3)cnc21`, which Potency is on record?
The Potency was inconclusive: 44.7 µM [inhibitor, full curve].

`O=C(NC1CCCC1)N1CCCN(c2nc3ncccc3o2)CC1` was tested. Which “activity change, negative = inhibition” value did it give?
The value was inactive: 31.8% [at 176 µM].

For `Cc1ccc(C)c(NC(=O)c2nnn(CC(=O)Nc3cccc(C)c3C)c2N)c1`, which “activity change, negative = inhibition” value is on record?
Its value is inactive: 0.344%.

How did the “activity change, negative = inhibition” value turn out when `Cc1oc2cc(OCC(=O)NCc3ccccc3F)ccc2c(=O)c1Oc1ccccc1` was run?
The value was inactive: -2.22%.

With `O=C(c1ccc2ccccc2c1)N1CCN(c2ccc(O)cc2)CC1` as the compound, how does the Potency read?
Its Potency is inconclusive: 5.62 µM [inhibitor, partial curve, poor fit].

How did the “activity change, negative = inhibition” value turn out when `C=CCNC/C=C/c1ccccc1` was run?
The value was inactive: -0.0389%.

How did the “activity change, negative = inhibition” value turn out when `COc1ccc(F)cc1-c1cc(C(=O)Nc2ccc(C)c(NS(C)(=O)=O)c2)[nH]n1` was run?
Its value is inactive: -55.7%.

For `O=[N+]([O-])c1ccc(OCC2CC(c3ccccc3)=NO2)cc1` (stereo not given), which Potency is on record?
Its Potency is inconclusive: 158 µM [inhibitor, single point].

How did the Potency turn out when `CCC(NC(=O)Nc1ccc(Br)cc1)c1ccc(C(C)C)cc1` (stereo not given) was run?
Its Potency is inconclusive: 1.78 µM [inhibitor, full curve, poor fit].

How did the Potency turn out when `O=C(C[C@@H]1C/C=C/CC[C@@H](Cc2ccc(F)cc2)C(=O)OCCNC1=O)N[C@H](CO)Cc1ccccc1` was run?
The Potency was inconclusive: 112 µM [inhibitor, single point].

Which Potency does the source give for `Cc1ccc(C)c(N/N=C2\CCCNC2=O)c1` here?
Its Potency is active: 8.91 µM.

For `COCCn1c(SCC#N)nnc1-c1ccc([N+](=O)[O-])cc1`, which Potency is on record?
The Potency was inconclusive: 100 µM [inhibitor, partial curve, poor fit].

With `CCN1CCC2(CCC1=O)CN(Cc1cccc3cccnc13)CCN2C` (stereo not given) as the compound, how does the “activity change, negative = inhibition” value read?
Its value is inactive: -5.5%.

`C=CCNC(=O)c1ccc(NC(=O)CC2SC(N3CCCC3)=NC2=O)cc1` (stereo not given) was tested. Which Potency did it give?
Its Potency is inconclusive: 0.447 µM [inhibitor, full curve, poor fit].

How did the Potency turn out when `Cc1cc2c(c(=O)n1CCN(C)C)C(c1ccc(Br)cc1)C(C#N)=C(N)O2` (stereo not given) was run?
Its Potency is inconclusive: 56.2 µM [inhibitor, partial curve, poor fit].

Which “activity change, negative = inhibition” value does the source give for `CCCOC(=O)COc1ccc2c(=O)c(-c3ccccc3)coc2c1` here?
The value was inactive: 30.8%.

With `COc1ccccc1NCCC(=O)OCC(=O)Nc1cccc(S(=O)(=O)N(C)C)c1` as the compound, how does the Potency read?
Its Potency is inconclusive: 89.1 µM [inhibitor, single point].

How did the Potency turn out when `COc1ccc(/C=C/C(=O)c2ccc(NS(=O)(=O)c3ccc(C)cc3)cc2)cc1O` was run?
The Potency was inconclusive: 44.7 µM [inhibitor, partial curve, poor fit].

Which Potency does the source give for `CC(C)C(NC(=O)c1ccc(C(C)(C)C)cc1)C(=O)NCCc1ccccn1` (stereo not given) here?
Its Potency is inconclusive: 112 µM [inhibitor, single point].

Which Potency does the source give for `CC(C)OC(=O)CN1C(=O)S/C(=C/c2ccc(N3CCCCC3)o2)C1=O` here?
Its Potency is inconclusive: 5.01 µM [inhibitor, full curve].

Which Potency does the source give for `O=C(CS(=O)(=O)c1nc(-c2ccc(Cl)cc2)cn1-c1ccccc1)Nc1ccc(F)cc1F` here?
The Potency was inconclusive: 50.1 µM [inhibitor, partial curve, poor fit].

How did the “activity change, negative = inhibition” value turn out when `CC(C)N(Cc1cnn(C)c1)S(=O)(=O)c1ccc(F)c(F)c1` was run?
The value was inactive: -52.6%.

With `COc1ccc(Cl)cc1C(=O)Nc1ccc(F)c(S(=O)(=O)N2CCOCC2)c1` as the compound, how does the “activity change, negative = inhibition” value read?
Its value is inactive: 4.54%.

`CCn1c(/N=C/c2ccc(OC)cc2O)nc2ccccc21` was tested. Which Potency did it give?
The Potency was inconclusive: 44.7 µM [inhibitor, partial curve, poor fit].

For `CCC(C)NC(=O)C1CC(=O)N(CCc2ccc(F)cc2)C1` (stereo not given), which Potency is on record?
Its Potency is inconclusive: 79.4 µM [inhibitor, single point].

How did the “activity change, negative = inhibition” value turn out when `Cc1cc(NC(=O)NCc2nc(-c3ccccc3C)oc2C)ccc1Cl` was run?
Its value is inactive: -3.72%.

For `CCOC(=O)C1(Cc2cccc(OC)c2)CCCN(C(=O)CCN2CCCCO2)C1` (stereo not given), which “activity change, negative = inhibition” value is on record?
The value was inactive: 69.1%.

How did the “activity change, negative = inhibition” value turn out when `O=C1CN(C(=O)COC(=O)c2ccc(N3CCCCCC3)c([N+](=O)[O-])c2)c2ccccc2N1` was run?
The value was inactive: -7.5%.

With `CCOC(=O)[C@]12CCC=C1N(CCC1=CCCCC1)C(=O)[C@H](CC(=O)N1CCC(c3ccccc3)CC1)C2` as the compound, how does the Potency read?
The Potency was inconclusive: 35.5 µM [inhibitor, single point].

Which “activity change, negative = inhibition” value does the source give for `O=c1[nH]c(C2CCN(S(=O)(=O)c3ccc([N+](=O)[O-])cc3)CC2)nc2c1nnn2Cc1ccccc1` here?
The value was inactive: -12.6%.

For `O=C1CSc2sc(=S)sc2SC1`, which Potency is on record?
The Potency was active: 5.01 µM.
